Laboratory results: the supplement of paper PMC10849652
Some of the results follow. Residues, ends and D or L forms follow the SMILES beside them. *: point of attachment. Cbz = O=C(OCc1ccccc1)*

By UniProt entry, the sequences of proteins in these tests, tags left out. Where a name states a change or a piece, a line headed by the entry shows the natural chain unless it says otherwise.
UniProt P20338: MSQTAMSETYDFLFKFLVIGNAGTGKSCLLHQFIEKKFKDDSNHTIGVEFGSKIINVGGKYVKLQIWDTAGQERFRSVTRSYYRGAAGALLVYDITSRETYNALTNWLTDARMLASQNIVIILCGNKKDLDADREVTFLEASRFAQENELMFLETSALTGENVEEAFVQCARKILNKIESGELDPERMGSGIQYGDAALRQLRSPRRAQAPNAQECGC
UniProt Q9NRW1: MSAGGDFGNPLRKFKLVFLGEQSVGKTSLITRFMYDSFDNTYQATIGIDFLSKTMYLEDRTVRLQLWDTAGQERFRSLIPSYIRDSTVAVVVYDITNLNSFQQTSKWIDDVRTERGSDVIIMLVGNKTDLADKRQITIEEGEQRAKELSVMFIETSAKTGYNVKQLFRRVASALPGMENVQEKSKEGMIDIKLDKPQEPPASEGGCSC
UniProt P51149, whole entry, looked up: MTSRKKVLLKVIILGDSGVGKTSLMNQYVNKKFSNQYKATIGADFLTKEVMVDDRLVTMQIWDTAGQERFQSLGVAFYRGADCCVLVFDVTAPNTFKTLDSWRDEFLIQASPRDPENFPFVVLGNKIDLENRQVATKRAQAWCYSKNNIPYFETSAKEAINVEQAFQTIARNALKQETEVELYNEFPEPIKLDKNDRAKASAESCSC
UniProt P61006: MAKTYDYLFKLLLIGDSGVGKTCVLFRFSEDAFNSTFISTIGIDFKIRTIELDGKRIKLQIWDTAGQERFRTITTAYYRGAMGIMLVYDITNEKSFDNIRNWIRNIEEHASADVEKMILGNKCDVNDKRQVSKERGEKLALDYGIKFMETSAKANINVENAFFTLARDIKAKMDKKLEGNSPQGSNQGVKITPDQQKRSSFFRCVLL
UniProt Q13637: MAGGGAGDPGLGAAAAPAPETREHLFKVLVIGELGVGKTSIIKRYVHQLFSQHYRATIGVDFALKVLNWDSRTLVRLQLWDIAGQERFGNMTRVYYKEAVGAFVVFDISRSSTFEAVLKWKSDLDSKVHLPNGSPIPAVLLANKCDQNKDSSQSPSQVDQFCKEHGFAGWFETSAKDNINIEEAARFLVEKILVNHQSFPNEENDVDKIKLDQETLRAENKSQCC
UniProt P43487, whole entry, looked up: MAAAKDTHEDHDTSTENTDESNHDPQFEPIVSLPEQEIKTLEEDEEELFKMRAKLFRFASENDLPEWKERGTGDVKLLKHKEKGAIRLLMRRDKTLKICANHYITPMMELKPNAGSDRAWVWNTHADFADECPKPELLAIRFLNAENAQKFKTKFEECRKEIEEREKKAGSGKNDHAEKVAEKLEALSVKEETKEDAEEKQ
UniProt Q15291, whole entry, looked up: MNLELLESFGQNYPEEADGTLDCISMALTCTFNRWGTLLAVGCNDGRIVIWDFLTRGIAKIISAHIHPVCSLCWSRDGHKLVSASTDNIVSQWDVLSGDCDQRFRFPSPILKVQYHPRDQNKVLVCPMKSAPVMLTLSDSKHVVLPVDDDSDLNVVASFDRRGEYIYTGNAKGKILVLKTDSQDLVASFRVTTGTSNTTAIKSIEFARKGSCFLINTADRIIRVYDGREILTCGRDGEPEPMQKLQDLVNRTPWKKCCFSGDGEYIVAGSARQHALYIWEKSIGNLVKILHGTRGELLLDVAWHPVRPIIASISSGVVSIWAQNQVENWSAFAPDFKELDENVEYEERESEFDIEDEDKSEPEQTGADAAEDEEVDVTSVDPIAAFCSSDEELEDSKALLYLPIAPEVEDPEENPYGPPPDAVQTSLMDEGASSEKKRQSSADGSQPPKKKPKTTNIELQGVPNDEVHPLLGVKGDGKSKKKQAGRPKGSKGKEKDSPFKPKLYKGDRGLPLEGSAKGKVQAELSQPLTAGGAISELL
UniProt P53611: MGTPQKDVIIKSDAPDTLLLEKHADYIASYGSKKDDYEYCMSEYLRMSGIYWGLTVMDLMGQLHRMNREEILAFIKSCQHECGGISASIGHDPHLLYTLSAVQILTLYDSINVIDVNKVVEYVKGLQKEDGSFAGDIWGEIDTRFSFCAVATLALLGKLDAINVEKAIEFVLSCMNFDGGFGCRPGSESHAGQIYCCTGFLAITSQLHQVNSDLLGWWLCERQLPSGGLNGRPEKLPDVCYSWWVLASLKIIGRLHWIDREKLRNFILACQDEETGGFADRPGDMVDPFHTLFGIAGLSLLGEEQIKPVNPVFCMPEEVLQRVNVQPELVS
UniProt Q13636: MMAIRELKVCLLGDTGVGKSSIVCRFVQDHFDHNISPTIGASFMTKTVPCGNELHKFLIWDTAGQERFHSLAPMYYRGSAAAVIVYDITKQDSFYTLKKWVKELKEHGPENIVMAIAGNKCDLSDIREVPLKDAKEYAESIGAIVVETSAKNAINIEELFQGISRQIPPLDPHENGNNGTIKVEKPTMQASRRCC
UniProt O14966: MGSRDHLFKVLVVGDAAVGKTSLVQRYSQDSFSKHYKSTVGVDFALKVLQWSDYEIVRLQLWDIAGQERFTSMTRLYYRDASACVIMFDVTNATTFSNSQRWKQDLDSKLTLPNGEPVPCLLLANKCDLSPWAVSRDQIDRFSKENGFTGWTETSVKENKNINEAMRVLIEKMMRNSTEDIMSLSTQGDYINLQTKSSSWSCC
UniProt Q9H2T7: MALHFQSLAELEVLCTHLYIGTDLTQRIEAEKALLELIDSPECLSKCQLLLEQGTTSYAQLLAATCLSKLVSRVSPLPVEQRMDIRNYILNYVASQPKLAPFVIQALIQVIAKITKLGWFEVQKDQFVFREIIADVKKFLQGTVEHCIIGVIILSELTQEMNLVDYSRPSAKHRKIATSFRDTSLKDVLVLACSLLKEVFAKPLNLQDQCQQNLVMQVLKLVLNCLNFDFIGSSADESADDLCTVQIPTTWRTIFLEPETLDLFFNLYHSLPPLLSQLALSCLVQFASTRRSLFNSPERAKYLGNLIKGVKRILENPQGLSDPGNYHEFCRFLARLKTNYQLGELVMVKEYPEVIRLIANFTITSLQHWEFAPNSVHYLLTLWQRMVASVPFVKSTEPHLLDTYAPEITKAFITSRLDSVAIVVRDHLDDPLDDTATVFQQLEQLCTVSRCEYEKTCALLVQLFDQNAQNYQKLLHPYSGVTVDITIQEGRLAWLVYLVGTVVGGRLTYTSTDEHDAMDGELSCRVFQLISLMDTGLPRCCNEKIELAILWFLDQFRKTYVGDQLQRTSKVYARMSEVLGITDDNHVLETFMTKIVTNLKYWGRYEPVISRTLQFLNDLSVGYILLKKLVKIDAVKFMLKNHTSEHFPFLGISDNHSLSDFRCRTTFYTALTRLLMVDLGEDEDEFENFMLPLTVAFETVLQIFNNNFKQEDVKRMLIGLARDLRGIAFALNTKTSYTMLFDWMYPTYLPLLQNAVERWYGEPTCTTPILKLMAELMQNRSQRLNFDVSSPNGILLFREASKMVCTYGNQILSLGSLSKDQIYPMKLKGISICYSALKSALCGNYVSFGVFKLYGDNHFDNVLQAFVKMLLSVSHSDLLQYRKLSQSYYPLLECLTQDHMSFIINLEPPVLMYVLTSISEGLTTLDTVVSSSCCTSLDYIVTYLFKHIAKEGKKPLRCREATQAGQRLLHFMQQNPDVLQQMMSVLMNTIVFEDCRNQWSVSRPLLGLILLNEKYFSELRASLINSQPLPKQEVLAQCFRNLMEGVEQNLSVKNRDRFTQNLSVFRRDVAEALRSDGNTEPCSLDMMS
UniProt P61225: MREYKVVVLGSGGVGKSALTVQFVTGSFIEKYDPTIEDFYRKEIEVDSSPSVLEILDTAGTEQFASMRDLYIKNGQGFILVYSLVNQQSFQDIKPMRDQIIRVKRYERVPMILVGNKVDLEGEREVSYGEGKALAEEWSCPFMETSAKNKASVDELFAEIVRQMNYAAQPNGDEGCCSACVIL
UniProt O43502: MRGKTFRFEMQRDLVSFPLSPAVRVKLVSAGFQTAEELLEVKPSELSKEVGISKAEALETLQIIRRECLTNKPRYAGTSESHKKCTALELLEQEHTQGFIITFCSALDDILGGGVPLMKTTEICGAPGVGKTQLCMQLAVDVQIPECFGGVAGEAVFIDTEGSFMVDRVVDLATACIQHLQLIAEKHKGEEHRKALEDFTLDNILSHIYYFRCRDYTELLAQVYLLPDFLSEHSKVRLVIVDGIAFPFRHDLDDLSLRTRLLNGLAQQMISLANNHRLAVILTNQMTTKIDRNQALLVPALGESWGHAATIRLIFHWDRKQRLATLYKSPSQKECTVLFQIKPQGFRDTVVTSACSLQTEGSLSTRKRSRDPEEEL
UniProt Q16576, whole entry, looked up: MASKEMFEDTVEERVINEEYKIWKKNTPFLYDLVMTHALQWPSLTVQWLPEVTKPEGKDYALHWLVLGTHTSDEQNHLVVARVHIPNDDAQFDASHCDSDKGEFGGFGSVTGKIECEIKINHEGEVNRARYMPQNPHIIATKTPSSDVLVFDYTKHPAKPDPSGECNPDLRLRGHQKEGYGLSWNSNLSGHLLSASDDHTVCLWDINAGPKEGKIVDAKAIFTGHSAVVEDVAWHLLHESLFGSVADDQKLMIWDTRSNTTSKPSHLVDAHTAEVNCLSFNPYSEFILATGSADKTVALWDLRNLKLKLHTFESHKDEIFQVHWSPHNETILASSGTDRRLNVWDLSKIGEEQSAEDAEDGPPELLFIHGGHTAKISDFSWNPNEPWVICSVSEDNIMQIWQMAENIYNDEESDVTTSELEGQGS
UniProt Q86YS6: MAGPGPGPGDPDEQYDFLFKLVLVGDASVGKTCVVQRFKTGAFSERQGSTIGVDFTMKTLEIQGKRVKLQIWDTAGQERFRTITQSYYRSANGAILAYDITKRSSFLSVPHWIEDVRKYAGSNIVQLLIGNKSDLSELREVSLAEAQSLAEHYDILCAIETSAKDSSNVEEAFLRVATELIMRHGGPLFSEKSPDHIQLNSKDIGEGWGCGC

What was measured:
Assay in all cases: log2 fold change, soluble protein after heating vs DMSO (PISA); higher = thermal stabilisation; K562 cells, 10 uM, 30 min; active = over 0.2 and 3.5 SD of the protein, either way, in both replicates (recomputed)
[1] = compound: C#Cc1cccc(Nc2ncnc3cc(OCCOC)c(OCCOC)cc23)c1 [erlotinib]
In short: (§1)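 Thermal stability values are relative to control samples and come from duplicates. They are expressed as log2 fold changes. For measurement, K562 cells (2×10^6 cells/mL) received 10 μM compound for 30 min, and aliquots were heated for 3 min over 48°C-58°C, pooled, and extracted at 4°C in PBS with 0.5% NP-40. Soluble protein, the supernatant after 21,000xg for 90 min, was quantified by TMTpro 16plex LC-MS/MS with equalised channel sums.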

[2] = compound: C/C(=N\NC(=O)C1=CC(=CC=C1)S(=O)(=O)N2CCOCC2)/C3=C(C=CC(=C3)Cl)O
In short: as §1

[3] = compound: C1=CC(=C(C=C1Cl)C2=NC3=NC=CN=C3C(=N2)NC4=CC=NC=C4)F
In short: as §1

[4] = compound: C1=CC(=CC=C1C2=NC3=C(N2)C=C(C=C3)C(=O)N)OC4=CC=C(C=C4)Cl
In short: as §1

[5] = compound: C1=CC2=C(C=CC(=C2)/C=C\3/C(=O)NC(=NCC4=CC=CS4)S3)N=C1
In short: as §1

[6] = compound: C1=CC2=NC=CN=C2C=C1/C=C/3\C(=O)NC(=O)S3
In short: as §1

[7] = compound: C1=CC=C(C=C1)C2=NC(=C(N2)C3=CC=NC=C3)C4=CC(=C(C=C4)Cl)O
In short: as §1

[8] = compound: C1=CC=C2C(=C1)C3=NNC4=CC=CC(=C43)C2=O
In short: as §1

[9] = compound: C1CCN(C1)C(=O)NC2=CC=CC(=C2)NC3=NC=C(C(=N3)NCCC4=CN=CN4)Br
In short: as §1

[10] = compound: C1CN(CCC1(CC2=CC=C(C=C2)Cl)N)C3=NC=NC4=C3C=CN4
In short: as §1

[11] = compound: C1COCCN1CCN2C3=CC=CC=C3N=C2NC(=O)C4=CC(=CC=C4)[N+](=O)[O-] [IRAK-1-4 Inhibitor I]
In short: as §1

[12] = compound: C=CC(=O)N1CCC[C@@H](n2nc(-c3ccc(Oc4ccccc4)cc3)c3c(N)ncnc32)C1 [ibrutinib]
In short: as §1

[13] = compound: CC(=O)c1cnc2ccc(-c3cc(Cl)c(O)c(Cl)c3)nc2c1N[C@H]1CC[C@H](CN(C)C)CC1
In short: as §1

[14] = compound: CC(C)(C)Cn1c(N)nc2ccc(-c3[nH]c(C(C)(C)C)nc3-c3ccc(F)cc3)nc21 [ralimetinib]
In short: as §1

[15] = compound: CC(C)(O)CC(=O)NCCn1ccc2ncnc(Nc3ccc(Oc4cccc(C(F)(F)F)c4)c(Cl)c3)c21
In short: as §1

[16] = compound: CC(C)C1=C2N=C(C=C(N2N=C1)NCC3=CC=CC=C3)NCCCCCCN
In short: as §1

[17] = compound: CC(C)C[C@@H](C=O)NC(=O)[C@H](CC(C)C)NC(=O)[C@H](CC(C)C)NC(=O)OCc1ccccc1
In short: as §1

[18] = compound: CC(C)N(C[C@H]1O[C@@H](n2cnc3c(N)ncnc32)[C@H](O)[C@@H]1O)[C@H]1C[C@@H](CCc2nc3cc(C(C)(C)C)ccc3[nH]2)C1 [pinometostat]
In short: as §1

[19] = compound: CC1=C(C(CC(=O)N1)C2=CC=C(C=C2)C(F)(F)F)C(=O)NC3=C(C=C4C(=C3)C=NN4)F
In short: as §1

[20] = compound: CC1=C(C2=C(C=C1)C(=O)C3=CC=CC=C3N2CCCN)C
In short: as §1

Measured: log2 fold change

RAB4A (UniProt P20338)
inactive: [1] 0.006 | [2] 0.047 | [3] -0.01 | [4] -0.019 | [5] -0.001 | [6] 0.011 | [7] -0.003 | [8] -0.031 | [9] 0.024 | [10] 0.019 | [11] 0.015 | [12] 0.04 | [13] -0.046 | [14] -0.017 | [15] -0.004 | [16] 0.061 | [17] -0.01 | [18] -0.08 | [19] -0.017 | [20] 0.01

RAB6B (UniProt Q9NRW1)
inactive: [1] 0.007 | [2] 0.064 | [3] 0.046 | [4] -0.008 | [5] -0.079 | [6] 0.001 | [7] 0.032 | [8] 0.04 | [9] -0.015 | [10] 0.016 | [11] 0.043 | [12] 0.02 | [13] 0.057 | [14] 0.058 | [15] 0.05 | [16] 0.118 | [17] -0.058 | [18] -0.068 | [19] -0.037 | [20] 0.015

RAB7A (UniProt P51149)
inactive: [1] 0.009 | [2] 0.006 | [3] 0.037 | [4] -0.025 | [5] -0.009 | [6] -0.001 | [7] 0.02 | [8] -0.018 | [9] 0.031 | [10] 0.051 | [11] 0.042 | [12] 0.03 | [13] 0.017 | [14] -0.045 | [15] 0.026 | [16] 0.016 | [17] 0 | [18] -0.06 | [19] 0.01 | [20] -0.026

RAB8A isoform 2 (UniProt P61006)
inactive: [1] -0.058 | [2] 0.133 | [3] 0.025 | [4] 0.047 | [5] -0.067 | [6] 0.055 | [7] -0.06 | [8] -0.019 | [9] 0.01 | [10] 0.039 | [11] 0.014 | [12] -0.015 | [13] 0.024 | [14] -0.042 | [15] 0.009 | [16] 0.041 | [17] -0.02 | [18] -0.021 | [19] -0.01 | [20] 0.005

RAB32 (UniProt Q13637)
inactive: [1] -0.02 | [2] 0.047 | [3] -0.007 | [4] 0.002 | [5] -0.025 | [6] 0.069 | [7] -0.041 | [8] 0.044 | [9] 0 | [10] 0.042 | [11] 0.019 | [12] 0.009 | [13] -0.004 | [14] -0.11 | [15] -0.025 | [16] 0.071 | [17] -0.107 | [18] -0.003 | [19] 0.034 | [20] 0.028

RANBP1 (UniProt P43487)
inactive: [1] -0.04 | [2] 0.026 | [3] 0.062 | [4] -0.024 | [5] -0.053 | [6] 0.077 | [7] -0.048 | [8] -0.044 | [9] 0.011 | [10] 0.038 | [11] -0.034 | [12] -0.043 | [13] 0.018 | [14] -0.046 | [15] -0.011 | [16] 0.018 | [17] -0.035 | [18] -0.107 | [19] 0.063 | [20] -0.072

RBBP5 (UniProt Q15291)
inactive: [1] 0.004 | [2] -0.066 | [3] -0.004 | [4] -0.021 | [5] -0.06 | [6] 0.06 | [7] -0.016 | [8] -0.053 | [9] 0.024 | [10] 0.083 | [11] 0.025 | [12] 0.016 | [13] 0.05 | [14] -0.012 | [15] 0.032 | [16] 0.102 | [17] 0.013 | [18] 0.004 | [19] 0.026 | [20] -0.033

RAB8A (UniProt P61006)
inactive: [1] -0.014 | [2] -0.007 | [3] 0.042 | [4] -0.01 | [5] 0.061 | [6] -0.077 | [7] -0.001 | [8] 0.009 | [9] -0.024 | [10] 0.062 | [11] 0.123 | [12] 0.046 | [13] -0.011 | [14] -0.109 | [15] -0.032 | [16] 0.055 | [17] 0.068 | [18] -0.005 | [19] 0.019 | [20] 0.089

RABGGTB (UniProt P53611)
inactive: [1] -0.039 | [2] -0.023 | [3] 0.103 | [4] 0.072 | [5] 0.006 | [6] 0.041 | [7] 0.054 | [8] 0.047 | [9] -0.086 | [10] 0.133 | [11] 0.032 | [12] -0.019 | [13] -0.028 | [14] -0.038 | [15] -0.035 | [16] 0.028 | [17] 0.035 | [18] -0.019 | [19] 0.004 | [20] -0.012

RAB31 (UniProt Q13636)
inactive: [1] -0.009 | [2] 0.026 | [3] 0.025 | [4] 0.028 | [5] -0.016 | [6] 0.01 | [7] 0.038 | [8] -0.028 | [9] 0.012 | [10] 0.02 | [11] 0.015 | [12] 0.038 | [13] 0.025 | [14] -0.019 | [15] -0.011 | [16] 0.081 | [17] -0.014 | [18] -0.035 | [19] -0.008 | [20] -0.018

RAB29 (UniProt O14966)
inactive: [1] -0.019 | [2] -0.051 | [3] 0.043 | [4] 0.045 | [5] 0.177 | [6] 0.053 | [7] -0.037 | [8] 0.034 | [9] -0.06 | [10] -0.028 | [11] 0.019 | [12] 0.064 | [13] -0.025 | [14] -0.188 | [15] -0.005 | [16] 0.071 | [17] 0.108 | [18] -0.006 | [19] 0.009 | [20] 0.058

RANBP17 (UniProt Q9H2T7)
inactive: [1] -0.071 | [2] 0.091 | [3] 0.122 | [4] 0.039 | [5] -0.176 | [6] -0.065 | [7] 0.079 | [8] 0.282 | [9] -0.008 | [10] -0.116 | [11] 0.017 | [12] 0.081 | [13] 0.01 | [14] -0.041 | [15] 0.162 | [16] 0.004 | [17] -0.01 | [18] 0.018 | [19] -0.015 | [20] -0.153

RAP2B (UniProt P61225)
inactive: [1] 0.061 | [2] -0.007 | [3] 0.031 | [4] -0.025 | [5] 0.042 | [6] 0.018 | [7] 0.008 | [8] 0.009 | [9] -0.04 | [10] 0.157 | [11] -0.013 | [12] 0.044 | [13] -0.08 | [14] -0.007 | [15] -0.024 | [16] 0.088 | [17] -0.014 | [18] -0.086 | [19] -0.031 | [20] 0.047

RAD51C (UniProt O43502)
inactive: [1] 0.034 | [2] 0.013 | [3] 0.099 | [4] 0.009 | [5] 0.06 | [6] 0 | [7] 0.017 | [8] 0.013 | [9] -0.007 | [10] 0.109 | [11] 0.024 | [12] -0.05 | [13] 0.018 | [14] 0.028 | [15] -0.038 | [16] 0.018 | [17] 0.02 | [18] 0.014 | [19] -0.004 | [20] -0.004

Reprinted from the entries so far (two entries):
RAB32 (UniProt Q13637)
inactive: [1] -0.02 | [2] 0.047 | [3] -0.007 | [4] 0.002 | [5] -0.025 | [6] 0.069 | [7] -0.041 | [8] 0.044 | [9] 0 | [10] 0.042 | [11] 0.019 | [12] 0.009 | [13] -0.004 | [14] -0.11 | [15] -0.025 | [16] 0.071 | [17] -0.107 | [18] -0.003 | [19] 0.034 | [20] 0.028

RANBP1 (UniProt P43487)
inactive: [1] -0.04 | [2] 0.026 | [3] 0.062 | [4] -0.024 | [5] -0.053 | [6] 0.077 | [7] -0.048 | [8] -0.044 | [9] 0.011 | [10] 0.038 | [11] -0.034 | [12] -0.043 | [13] 0.018 | [14] -0.046 | [15] -0.011 | [16] 0.018 | [17] -0.035 | [18] -0.107 | [19] 0.063 | [20] -0.072

Following part

RBBP7 isoform 2 (UniProt Q16576)
inactive: [1] -0.027 | [2] 0.049 | [3] -0.012 | [4] -0.005 | [5] -0.006 | [6] -0.019 | [7] -0.02 | [8] 0.006 | [9] 0.026 | [10] -0.004 | [11] 0.022 | [12] -0.002 | [13] -0.022 | [14] -0.094 | [15] 0.058 | [16] 0.031 | [17] -0.058 | [18] -0.035 | [19] -0.044 | [20] -0.05

RAB43 (UniProt Q86YS6)
inactive: [1] 0.065 | [2] 0.047 | [3] 0.032 | [4] -0.01 | [5] 0.071 | [6] 0.016 | [7] -0.049 | [8] -0.007 | [9] 0.011 | [10] 0.093 | [11] 0.099 | [12] 0.026 | [13] -0.008 | [14] 0.084 | [15] -0.029 | [16] 0.05 | [17] 0.193 | [18] 0.01 | [19] 0.063 | [20] -0.107
